Assay results: US20090042865A1, “DNA-PK INHIBITORS” (priority 2007, published 2009)
Some results were stated once for a whole list of compounds, not compound by compound.

These compounds were tested on HeLa cells (assay: Survival Enhancement Ratio, clonogenic survival assay after 2 Gray irradiation). Settings: at 100 nM.
Format: cell-based
Description: The Survival Enhancement Ratio (SER) is a ratio of the enhancement of cell kill elicited by the DNA-PK inhibitor after 2 Grays of irradiation compared to […]. DNA-PK inhibitors were used at a concentration of 25, 50, 100 and/or 500 nM. Radiation was delivered by a Faxitron 43855D machine at a dose rate of 1 Gy pre minute The SER at 2 Gray irradiation was calculated from the formula:
The degree of cell killing was monitored by a standard clonogenic survival assay. Briefly, tissue culture treated 6-well plates were seeded with HeLa cells at an appropriate concentration to give 100-200 colonies per well and returned to the incubator in order to allow the cells to attach. Four hours later, compound or vehicle control was added to the cells. The cells were then incubated for 1 hour in the presence of inhibitor prior to irradiation at 2 Gray using a Faxitron 43855D cabinet X-ray machine. The cells were then incubated for a further 16 hours before the media was replaced with fresh media in the absence of DNA-PK inhibitor. After 8 days, colonies formed were fixed and stained with Giemsa (Sigma, Poole, UK) and scored using an automated colony counter (Oxford Optronics Ltd, Oxford, UK). The data was calculated as described above.

SMILES | SER (Survival Enhancement Ratio)
O=c1cc(N2CCOCC2)oc2c(-c3ccc(N4CCNCC4)c4c3sc3ccccc34)cccc12 [Compound 1a, 2-Morpholin-4-yl-8-(1-piperazin-1-yl-dibenzothiophen-4-yl)-chromen-4-one] | ≥ 1.5
CCN1CCN(c2ccc(-c3cccc4c(=O)cc(N5CCOCC5)oc34)c3sc4ccccc4c23)CC1 [Compound 1b] | ≥ 1.5
O=c1cc(N2CCOCC2)oc2c(-c3ccc(N4CCN(CCOCCO)CC4)c4c3sc3ccccc34)cccc12 [Compound 1d] | ≥ 1.5
O=c1cc(N2CCOCC2)oc2c(-c3ccc(N4CCC(N5CCOCC5)CC4)c4c3sc3ccccc34)cccc12 [Compound 1f] | ≥ 1.5
CC1CN(c2ccc(-c3cccc4c(=O)cc(N5CCOCC5)oc34)c3sc4ccccc4c23)CC(C)N1 (centres unmarked) [Compound 1g] | ≥ 1.5
CN(C)C1CCN(c2ccc(-c3cccc4c(=O)cc(N5CCOCC5)oc34)c3sc4ccccc4c23)CC1 [Compound 1n] | ≥ 1.5
COCCOCCN1CCN(c2ccc(-c3cccc4c(=O)cc(N5CCOCC5)oc34)c3sc4ccccc4c23)CC1 [Compound 2b] | ≥ 1.5
COCCN1CCN(c2ccc(-c3cccc4c(=O)cc(N5CCOCC5)oc34)c3sc4ccccc4c23)CC1 [Compound 2c] | ≥ 1.5
CCOCCN1CCN(c2ccc(-c3cccc4c(=O)cc(N5CCOCC5)oc34)c3sc4ccccc4c23)CC1 [Compound 2e] | ≥ 1.5
CCCN1CCN(c2ccc(-c3cccc4c(=O)cc(N5CCOCC5)oc34)c3sc4ccccc4c23)CC1 [Compound 2f] | ≥ 1.5
CCCOCCN1CCN(c2ccc(-c3cccc4c(=O)cc(N5CCOCC5)oc34)c3sc4ccccc4c23)CC1 [Compound 2j] | ≥ 1.5
NCCN1CCN(c2ccc(-c3cccc4c(=O)cc(N5CCOCC5)oc34)c3sc4ccccc4c23)CC1 [Compound 2l] | ≥ 1.5
O=c1cc(N2CCOCC2)oc2c(-c3ccc(N4CCN(CCO)CC4)c4c3sc3ccccc34)cccc12 [Compound 2m] | ≥ 1.5
CC(C)NC(=O)CN1CCN(c2ccc(-c3cccc4c(=O)cc(N5CCOCC5)oc34)c3sc4ccccc4c23)CC1 [Compound 2o] | ≥ 1.5
